Measurements published in PubChem BioAssay AID2685 (National Center for Advancing Translational Sciences (NCATS), 2010).
This is one part of the list. These are further read-outs of the screen, such as a control signal, another cell line or another target. No call is given for them. Most of these compounds were active or inconclusive in the main read-out, so they are no random draw. Words in brackets tell the shape of the fitted curve; partial curves, single points and poor fits give uncertain potencies.

Assay: qHTS Assay for Lipid Storage Modulators in Drosophila S3 Cells;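 as to cell number change: cells counted by Cell Tracker Red CMTPX staining in the red channel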
Conditions: BODIPY lipid droplet fluorescence, 18-24 h; for cell number change: measured here: cell count max response, cells fed with added oleic acid
Method in brief: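 Drosophila S3 cells got compounds at several concentrations plus oleic acid (400 uM solution). Laser-scanning cytometry with 488 nm excitation read lipid droplets at 500-530 nm and cells at 575-640 nm. Percent activity was relative to 20 uM Triacsin C.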

[1] = measured here: cell number channel AC50, cells fed with added oleic acid
[2] = measured here: lipid fluorescence (Fed channel) AC50, cells fed with added oleic acid

Row | SMILES | cell number change [%] | AC50 [1] | AC50 [2]
1 | COc1cccc(CC(=O)N[C@@H](CCSC)c2nc3ccccc3[nH]2)c1 | 6.42 |  | 
2 | Cc1cc(C)nc(N/N=C/c2cc3c(cc2[N+](=O)[O-])OCO3)n1 | 16.9 | 4.11 µM [rising, partial curve, poor fit] | 0.116 µM [rising, partial curve, poor fit]
3 | c1ccc2c(c1)ncn2CCn1cnc2ccccc21 | 33.2 | 0.206 µM [rising, full curve, poor fit] | 29.1 µM [rising, single point]
4 | O=C(CCCOc1ccccc1)NCc1ccco1 | 154 |  | 
5 | COc1ccc(NC(=O)CCCCCN2C(=O)[C@@H]3Cc4ccccc4CN3C2=O)cc1Cl | -6.84 |  | 3.66 µM [rising, partial curve, poor fit]
6 | Cc1cc(NS(=O)(=O)c2ccc(NC(=O)c3ccc(Cl)cc3[N+](=O)[O-])cc2)no1 | -20.7 |  | 
7 | CCOc1ccc(C(=O)CCC(=O)N2CCC(C(=O)OC)CC2)cc1 |  |  | 29.1 µM [falling, single point]
8 | COc1ccc(CCC(=O)Nc2ccc(C)c([N+](=O)[O-])c2)cc1 | 4.55 |  | 2.91 µM [rising, full curve, poor fit]
9 | CCOC(=O)N1CCC(NC(=O)C2CCN(S(=O)(=O)c3c(C)noc3C)CC2)CC1 | 21.9 |  | 
10 | COc1cccc(OC)c1OCCCCCCN1CCN(C)CC1 | -11.1 |  | 8.2 µM [falling, partial curve]
11 | O=S(=O)(c1ccccc1Cl)N1CCC(O)(c2ccc3c(c2)OCO3)CC1 | 0.534 |  | 0.326 µM [falling, partial curve]
12 | O=C(N/N=C/c1cn(-c2ccccc2)nc1-c1cc2ccccc2o1)c1cccnc1 | -58 | 29.1 µM [falling, single point] | 20.6 µM [falling, single point]
13 | COc1cccc(NC(=O)COC(=O)C2CCN(S(=O)(=O)c3cccs3)CC2)c1 |  |  | 6.51 µM [rising, single point]
14 | COC(=O)NCC12CC3CC(C1)CC(CNC(=O)OC)(C3)C2 | -2.38 |  | 32.6 µM [falling, single point]
15 | CC(=O)c1c(C)[nH]c(C(=O)Nc2cccc(S(=O)(=O)N3CCCCC3)c2)c1C | -33.3 | 18.4 µM [falling, partial curve] | 3.26 µM [falling, full curve]
16 | CCOC(=O)CN(C(=O)Cn1nnc(-c2ccc(C)cc2)n1)C(CC)C(=O)NC1CCCC1 (configuration not stated) | 5.17 |  | 
17 | O=C(NCc1ccncc1)C1COc2ccccc2O1 (configuration not stated) | 21.1 |  | 18.4 µM [rising, single point]
18 | CCOc1[nH]n(-c2ccc(Cl)cc2)c(=O)c1C=Nc1ccc(OC)cc1 | -28.4 |  | 
19 | O=C(CCCn1c(=O)[nH]c2ccsc2c1=O)N1CCN(Cc2ccc3c(c2)OCO3)CC1 | -44.6 | 23.1 µM [falling, single point] | 
20 | CC(/C=N/NC(=O)c1cc(-c2ccc(Cl)cc2)nc2ccccc12)=C\c1ccco1 |  | 3.26 µM [rising, single point] | 9.2 µM [rising, partial curve]
21 | COc1ccc(Sc2nc(-c3ccccn3)ncc2OC)cc1 | -18.1 |  | 0.411 µM [rising, full curve, poor fit]
22 | O=C(OCC#CCSc1nnc(-c2cccc3ccccc23)o1)c1cnc[nH]1 | 38.8 | 0.517 µM [rising, full curve, poor fit] | 23.1 µM [rising, partial curve, poor fit]
23 | Cc1cc(NC(=O)c2ccccc2O)nc(C)n1 | -0.366 |  | 4.61 µM [falling, single point]
24 | Cc1cc(C(F)(F)F)n(-c2nc(C(=O)NN)cs2)n1 | 55.5 | 5.17 µM [rising, single point] | 25.9 µM [rising, single point]
25 | O=C(CSc1nnc(-c2ccco2)o1)N1c2ccccc2CCc2ccccc21 | -38.8 | 2.59 µM [falling, full curve] | 
26 | CC1CCCN(C(=O)CN2CCN(C(=O)c3ccco3)CC2)C1 (configuration not stated) | -5.4 | 1.03 µM [falling, full curve] | 0.326 µM [falling, full curve]
27 | Cc1occc1C(=O)NCc1cccc(CNC(=O)c2ccoc2C)c1 | -34.3 | 20.6 µM [falling, partial curve, poor fit] | 
28 | CC(OC(=O)c1ccc([N+](=O)[O-])s1)C(=O)NC1CCCCC1C (configuration not stated) | -0.0612 |  | 0.259 µM [rising, full curve, poor fit]
29 | CN1CCN(NC(=O)/C=C/c2ccc(C(C)(C)C)cc2)CC1 | -6.44 |  | 0.58 µM [falling, single point]

3 compounds already listed, arranged by molar mass, ascending.
Row | SMILES | cell number change [%] | AC50 [1] | AC50 [2]
3 | c1ccc2c(c1)ncn2CCn1cnc2ccccc21 | 33.2 | 0.206 µM [rising, full curve, poor fit] | 29.1 µM [rising, single point]
29 | CN1CCN(NC(=O)/C=C/c2ccc(C(C)(C)C)cc2)CC1 | -6.44 |  | 0.58 µM [falling, single point]
19 | O=C(CCCn1c(=O)[nH]c2ccsc2c1=O)N1CCN(Cc2ccc3c(c2)OCO3)CC1 | -44.6 | 23.1 µM [falling, single point] | 
